Experimental data published in PubChem BioAssay AID2685 (National Center for Advancing Translational Sciences (NCATS), 2010).
The whole screen tested about 320,000 compounds, of which about 2,100 (0.66%) were called active. The inconclusive results got no clear call from the source; some entries with a clear call stand among them for comparison. Calls follow the shape of the dose curve; as a rule, active = well fitted inhibition curve with a large enough effect in the signal ratio, with a control signal flat (not every such curve was filed as active); inconclusive = small, poorly fitted or top-dose-only effect, or effect the other way, or a change in a side signal; inactive = flat fitted curve, though single readings scatter; the % refers to the signal ratio. A potency beside an inconclusive call is a rough fit, not a confirmed value.

test: qHTS Assay for Lipid Storage Modulators in Drosophila S3 Cells; conditions: BODIPY lipid droplet fluorescence, 18-24 h, cells fed with added oleic acid; lipid storage change, negative = inhibition: at 46.1 µM (top of the series) unless noted
Outline: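 Laser-scanning cytometry quantifies lipid droplet accumulation (500–530 nm total intensity; droplet/cell object ratio) in oleic acid-fed (400 uM added) Drosophila S3 cells treated with a concentration series. 20 uM Triacsin C defined 100% inhibition.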
% is scaled to controls: 0 for no effect and ±100 for the full control effect; potency is read from the fitted curve at half-maximal effect.

SMILES | lipid storage change, negative = inhibition | Potency
CC(=O)C1=C(C)Nc2ncnn2C1c1cccc(Br)c1 (centres undefined) | inconclusive: 18.7% | 
Cc1ccc(NC(=O)CSc2nnc(/N=C/N(C)C)s2)cc1 | inconclusive: -69.3% [cytotoxic] [at 0.369 µM] | 
CC(C)Nc1nc2ccccc2c(=O)[nH]1 | inconclusive: 14.7% | 
CCNC(=O)COC(=O)c1ccc(S(=O)(=O)N2CCCCCC2)cc1 | inconclusive: -11.4% | 
Cc1ccc(S(=O)(=O)N(CC(=O)N/N=C/c2cccc(Cl)c2)c2cccc3cccnc23)cc1 | inconclusive: 106% | 
C=CCNC(=S)NC1CC(C)(C)NC(C)(C)C1 | inconclusive: -12.8% | 
Cn1nnnc1SCC(=O)Nc1ccccc1C(N)=O |  | inconclusive: 1.16 µM [cytotoxic, single point]
COc1ccc(C2NC(=O)NC(O)(C(F)(F)F)C2C(=O)c2ccccc2)cc1OC (centres undefined) | inconclusive: 2.76% | 
NC(=O)c1ccc(N=Nc2c(O)c3ccccc3[nH]c2=O)cc1 | inactive | 
CC(=O)Nc1nc(C=C(Cl)Cl)cs1 |  | inconclusive: 6.51 µM [falling, single point]
CCOCCCNC(=O)C1CCN(S(=O)(=O)CC)CC1 | inconclusive: -17.9% | 
CCCOc1ccc(N2C(=O)CC(S/C(N)=N/N=C(\C)c3cccs3)C2=O)cc1 (centres undefined) | inconclusive: -25.5% | 
CN(CC(=O)Nc1ccc(Cl)c(C(F)(F)F)c1)C(=O)c1cccc2cccnc12 |  | inconclusive: 2.06 µM [activator, full curve, poor fit]
CC(C)N=C(NS(=O)(=O)c1ccc(Br)cc1)c1ccc(Cl)cc1 | inconclusive: -10.4% | 
C=CCNC(=O)c1cc(-c2ccc(Br)cc2)on1 | inconclusive: 27.7% | 
O=C1Nc2ccc([N+](=O)[O-])cc2OC1CCN1CCN(Cc2ccc3c(c2)OCO3)CC1 (centres undefined) | inconclusive: -54.9% [cytotoxic] [at 0.00295 µM] | 
CC(C)CCN(C(=O)c1csnn1)C(C(=O)NC1CCCC1)c1ccccc1 (centres undefined) | inconclusive: 32.9% | 
CC1CCCCC1NS(=O)(=O)c1ccc2c(c1)CC(=O)N2C (centres undefined) | inconclusive: 43.1% | 
Cc1ccc(NC(=O)CN(C)C(C)C(=O)Nc2ccc(S(=O)(=O)N3CCCC3)cc2)cc1 (centres undefined) |  | inconclusive: 2.59 µM [rising, partial curve]
CCC(=O)Nc1cc(C(C)C)c(O)cc1C |  | inconclusive: 29.1 µM [falling, single point]
O=C(N/N=C/c1c(F)cccc1Cl)C1CC1 | inconclusive: 9.15% | 
O=C(Cc1ccc(NC2=NC3CS(=O)(=O)CC3S2)cc1)NCCc1ccccc1 (centres undefined) |  | inconclusive: 0.0052 µM [activator, full curve, poor fit]
COc1cccc(C(=O)N/N=c2\sc3ccccc3n2C)c1 |  | inconclusive: 3.26 µM [rising, partial curve]
COCCNC(=O)c1onc(CSc2cc(C)cc(C)c2)c1C(=O)NCCOC | inconclusive: 15% | 
Cc1csc(CCc2nc(C)cs2)n1 | inconclusive: -0.105% | 

SMILES | lipid storage change, negative = inhibition | Potency
CN1CCN(NC(=O)c2ccc(Cl)c([N+](=O)[O-])c2)CC1 | inconclusive: -103% | 
COc1cccc(Oc2ccc(C(F)(F)F)cc2NC(=O)CCc2nc3ccccc3c(=O)[nH]2)c1 |  | inconclusive: 25.9 µM [falling, single point]
COc1ccc(OC)c(CNc2ccc3c(c2)CCC3)c1 |  | inconclusive: 0.206 µM [activator, full curve, poor fit]
C=CCNC(=S)Nc1sc2c(c1C(=O)OCC)CC(C(C)C)OC2 (centres undefined) |  | inconclusive: 29.1 µM [rising, single point]
NC(=O)CC(NC(=O)c1cccc(Br)c1)c1ccc(N2CCCCCC2)c([N+](=O)[O-])c1 (centres undefined) | inconclusive: -5.87% | 
CCCCOc1ccc(CSCCNC(=S)Nc2ccccc2)cc1 |  | inconclusive: 18.4 µM [falling, single point]
CCCOc1ccc(/C=N\NC(=O)CCc2n[nH]c(=O)[nH]c2=O)cc1OC | inconclusive: 41.5% | 
COC(=O)C(NC(=O)CN1C(=O)c2ccccc2C1=O)c1ccc(O)c(OC)c1 (centres undefined) |  | inconclusive: 0.0291 µM [activator, full curve, poor fit]
COc1ccccc1Nc1n[nH]c(=S)s1 | inconclusive: 15.5% | 
O=C(CCN1C(=O)/C(=C\c2cccs2)SC1=S)Nc1nccs1 | inactive | 
O=C(O)O | inconclusive: -24.9% | 
O=[N+]([O-])c1cc(Cc2ccccc2)cc(C=Nc2ccc(N3CCOCC3)cc2)c1O | inconclusive: 10.9% | 
O=C(CNC(=O)c1ccc(Br)o1)NCc1ccc2c(c1)OCO2 |  | inconclusive: 14.6 µM [activator, partial curve, poor fit]
O=C(NCCNC(=O)c1cc(OCC(F)(F)F)ccc1OCC(F)(F)F)Nc1ccccc1 | inconclusive: -29.9% | 
CCOc1ccc2oc(C(=O)N(Cc3nnc(-c4ccccc4Cl)o3)C3CC3)c(C)c2c1 | inconclusive: -85.8% | 
O=C(NC1CCS(=O)(=O)C1)c1cccc(S(=O)(=O)N2CCCC2)c1 (centres undefined) | inconclusive: -39.5% [at 0.369 µM] | 
Cc1noc(C)c1C(=O)Nc1ccc(Cl)cc1C(F)(F)F | inconclusive: 27.6% | 
Cc1ccc(C)c(NC(=O)CSc2n[nH]c(-c3ccccn3)n2)c1 | inconclusive: 160% | 
CCc1ccc2nc(N3CCN(C)CC3)c(C#N)cc2c1 | inconclusive: 8.95% | 
Cn1c(SCC(=O)NC2CCCCC2)nnc1-c1ccccc1O |  | inconclusive: 29.1 µM [activator, single point]
COCC1CCCCN1C(=O)CCCn1nnnc1CN1CCC(C)CC1 (centres undefined) | inconclusive: 106% | 
NS(=O)(=O)c1ccc(NC(=O)COC(=O)C23CC4CC(CC(C4)C2)C3)cc1 |  | inconclusive: 0.58 µM [activator, single point]
CCOC(=O)C1CCN(C(=O)Cc2ccc(C)cc2)CC1 |  | inconclusive: 29.1 µM [cytotoxic, single point]
Cc1cnc(NC(=O)c2cc3c(C)nn(Cc4ccccc4Cl)c3s2)s1 | inconclusive: 4.19% | 

One compound at a time, as listed above.
`CC(C)CCN(C(=O)c1csnn1)C(C(=O)NC1CCCC1)c1ccccc1` (centres undefined) as listed: lipid storage change, negative = inhibition: inconclusive: 32.9%
`COc1ccc(C2NC(=O)NC(O)(C(F)(F)F)C2C(=O)c2ccccc2)cc1OC` (centres undefined) as listed: lipid storage change, negative = inhibition: inconclusive: 2.76%
`O=C(N/N=C/c1c(F)cccc1Cl)C1CC1` as listed: lipid storage change, negative = inhibition: inconclusive: 9.15%
